Data as given in PubChem BioAssay AID1259424 (University of Nebraska Medical Center, 2018).
This is an unselected part of about 14,000 deposited reagents. 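Higher correlation or smaller distance means closer resemblance to KSR1 loss; control wells, including KSR1 knockdowns, recur on many plates.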 Further read-outs or replicates are left out here. Reagent sequences are not shown. Not stated in the record: the time to read-out.

Assay: 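Rank knockdowns across the genome by resemblance to the KSR1 depletion profile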 (primary screen)
Cell system: human HCT116 colon cancer cells
Reagents: siRNA pool against human genes, 50 nM
Measured: 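Log2 levels of six mRNAs (branched-DNA multiplex), adjusted by two reference genes and the non-targeting median, then scored against the average KSR1 knockdown pattern as Pearson r and euclidean distance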
Scale: mean correlation with KSR1 profile: higher = expression change more like KSR1 knockdown; mean distance from KSR1 profile: higher = expression change less like KSR1 knockdown

mean correlation with KSR1 profile	mean distance from KSR1 profile	Target gene
0.64	0.837	ZNF443
-0.147	4.2	GFUS
-0.451	2.1	SNX13
-0.215	1.21	PCDHGA11
0.418	1.23	ZNF146
-0.0162	2.78	ASPSCR1
-0.508	2.57	ZNF91
0.0374	1.69	TCL6
0.816	1.1	SYNCRIP
0.27	2.41	PERM1
-0.091	3.12	ANXA4
-0.512	3.44	RASGRF1
-0.782	2	KLK4
0.313	2.33	CDCA7
-0.36	1.48	ZNF471
-0.0149	2.3	OAS2
-0.0803	2.28	CCNL2
0.114	1.76	KIFBP
0.0206	2.17	MOV10
0.397	3.46	AGXT2
-0.565	2.81	CEP43
0.265	1.98	PDC
0.592	1.16	CLIP1
-0.475	3.62	FUT6
-0.387	2.76	SLC1A7
-0.531	4.02	LRP8
-0.597	3.05	ITM2C
0.891	0.745	ADORA2B
-0.29	2.26	GBE1
-0.0432	1.8	HNRNPU
-0.135	1.71	STAG1
-0.103	1.41	LCMT2
-0.0634	1.81	OGFR
0.149	2.17	SAP30

Laid out differently: results already given
| mean correlation with KSR1 profile | mean distance from KSR1 profile | Target gene |
| --- | --- | --- |
| -0.0149 | 2.3 | OAS2 |
| -0.0803 | 2.28 | CCNL2 |
| 0.114 | 1.76 | KIFBP |
| 0.0206 | 2.17 | MOV10 |
| 0.397 | 3.46 | AGXT2 |
